At least one structure is not confirmed: it was looked up by name or label, or the drawing left a doubt.
Key:
[1] = system: multidrug resistance-associated protein (MRP); experiment: Time lapse observation of extracellular active discharge of probe at 37° C.; conditions: same visual field at 37° C., 40 μM probe 5, no MK-571
[2] = HPLC (LC/MS) retention time as measure of hydrophilicity / membrane permeability; type: physicochemical; conditions: C18 column, 20% B 2.5 min, 20%-->100% B 5 min, 500 μL/min, neutral conditions, mean±SD of three tests
Protocol: In the present invention, it is preferable to use the retention time on an HPLC chromatogram as the measure of hydrophilicity.
HPLC conditions: taking solvent A to be 0.01 M ammonium formate/water and solvent B to be 80% acetonitrile 0.01 M ammonium formate/water, chromatography is carried out under conditions of 20% solvent B for 2.5 minutes followed by a 5-minute linear gradient of solvent B from 20% to 100% (flow rate 500 μL/min).
A C18 column (HP 3 μm, inner diameter: 2.1 mm, length: 150 mm, GL Science), for example, can be used suitably as the column.
The water solubility was verified by LC/MS under neutral conditions to compare the membrane permeability of the five probes produced above and ALDEFLUOR. The reaction was stopped after advancing the reaction to the point that each probe was present as both a carboxylic acid form and an aldehyde form using a suitable isoform and concentration of ALDH, and analysis was conducted by LC/MS (Agilent 1200/6130 quadrupole LC/MS system). A C18 column (HP 3 μm, inner diameter: 2.1 mm, length: 150 mm, GL Science) was used as the column. HPLC chromatograms were carried out by 20% B for 2.5 minutes followed by a five-minute linear gradient (flow rate: 500 μL/min) from 20% to 100% B, taking solvent A to be 0.01 M ammonium formate/water and solvent B to be 80% acetonitrile 0.01 M ammonium formate/water. The probe containing BODIPY was detected by the absorbance at a wavelength of 504 nm and the probe containing TG at a wavelength of 495 nm, and m/z of the MS spectrum at each peak was confirmed to agree with the expected m/z. Three independent tests were run, and the mean±SD was calculated. […] Given that imaging of probe 1 was not successful, there was thought to be a threshold at which the membrane permeability changes rapidly between this 6.741 minutes and 7.098 minutes (band in FIG. 2).

ALDH1A1 = target: T1, ALDH1A1 (Homo sapiens, UniProt P00352); experiment: Reactivity of probes to recombinant ALDH1A1 (UPLC/MS/MS detection of aldehyde and carboxylic acid forms); type: biochemical; conditions: 10-100 nM ALDH, 10-80 μM compound, Tris buffer pH 7.5, 30 minutes at 37° C., ◯/X not defined by a legend
T1 construct: purchased
T1 sequence (P00352 1-501): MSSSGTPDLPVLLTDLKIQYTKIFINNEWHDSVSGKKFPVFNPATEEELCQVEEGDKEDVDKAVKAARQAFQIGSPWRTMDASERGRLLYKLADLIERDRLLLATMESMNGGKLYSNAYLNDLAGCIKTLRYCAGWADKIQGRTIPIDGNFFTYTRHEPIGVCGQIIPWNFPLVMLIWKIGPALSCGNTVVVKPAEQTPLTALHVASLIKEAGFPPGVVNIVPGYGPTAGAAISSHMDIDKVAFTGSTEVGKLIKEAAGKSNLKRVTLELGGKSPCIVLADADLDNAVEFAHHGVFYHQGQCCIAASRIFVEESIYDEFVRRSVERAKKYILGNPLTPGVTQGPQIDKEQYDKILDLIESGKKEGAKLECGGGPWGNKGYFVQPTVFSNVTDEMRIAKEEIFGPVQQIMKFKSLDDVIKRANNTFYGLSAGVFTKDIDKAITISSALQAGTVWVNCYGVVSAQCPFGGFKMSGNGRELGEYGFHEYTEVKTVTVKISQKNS
Protocol: Human recombinant ALDH1A1/1A3/3A1 was purchased, and 100 mM of KCL, 2 mM of DTT, 1 mM of NAD(P), 10-100 nM of each ALDH, and 10-80 μM of each compound were mixed in Tris buffer (100 mM, pH 7.5), reacted for 30 minutes at 37° C., an equal amount of acetonitrile added, and the reaction stopped. The reaction solution was analyzed by UPLC/MS/MS (Waters). The UPCL chromatogram was carried out over five minutes at a flow rate of 800 μL/min by a linear gradient from 5% acetonitrile 0.01 M ammonium formate/water to 95% acetonitrile 0.01 M ammonium formate/water. An aldehyde-form and carboxylic acid-form probe were detected by the absorbance at a wavelength of 504 nm, and m/z of the MS spectrum at each peak was confirmed to agree with the expected m/z.

OE21 cells = experiment: Flow cytometry of OE21 cells (positive rate); type: cell-based; conditions: siRNA knockdown six days, no MK-571
Protocol: Flow cytometry was carried out using probe 5 and OE21 cells. The cells were treated using trypsin, and the cell density was measured after passing the cells through a cell strainer (40 μm, Corning). […] After centrifuging for three minutes at 1500 rpm and removing the supernatant after the reaction, the cells were washed with chilled medium, centrifuged, and the medium was removed. The cells were again suspended in 100 μL of medium, and 4 μL of SYTOX (registered trademark) Red Dead Cell Stain (Thermo Fisher) was added. After standing for five minutes on ice, 150 μL of medium was added. […] Analysis was carried out using FACS Canto II (BD Biosciences). Excitation was provided by a blue laser (488 nm), and the brightness of probe 5 was detected in each cell by FITC channel (515-545 nm). About 30,000 cells were analyzed in each sample after removing doublets and removing dead cells. The positive gate was set in a range from near to above the upper limit of brightness in the negative control according to ALDEFLUOR assay, so that at most 3% of the cells were present within the gate in the negative control sample. Three independent tests were run.
ALDH3A1 was knocked down using small interference RNA (siRNA) to confirm that the positive group in flow cytometry using 0E21 cells and compound 5 was due to ALDH3A1 activity, and flow cytometry was conducted. […]

For `CCN(CCOCCNC(=O)c1ccc(-c2c3ccc(=O)cc-3oc3cc(O)ccc23)c(C)c1)c1ccc(C=O)cc1` [Probe 5, 2-(2-(N-ethyl-N-(4-formylphenyl)amino)ethoxy)ethyl-3-methyl-4-(6-hydroxyxanthen-3-on-9-yl)-benzamide], the “Fluorescent brightness over time (active discharge)” value [1] was “pronounced decrease in fluorescent brightness was seen about 10 minutes after the start of observation”, the “Retention Time, Aldehyde form” value [2] was 7.459 ± 0.003 min and the “Retention Time, carboxylate (carboxylic acid form)” value [2] was 6.602 ± 0.001 min. For the same compound, the “Retention Time, Aldehyde form” value ([2]; listed as probe 5) was “in the lower 7 minutes”, the “Retention Time, carboxylate (carboxylic acid form)” value ([2]; listed as probe 5) was “detected even earlier than that” and the “Reactivity to ALDH1A1” value (ALDH1A1) was “◯”. The “Reactivity to ALDH1A1” value (ALDH1A1; listed as probe 5) was “showed reactivity to ALDH1A1 and ALDH3A1” and the “Positive rate in flow cytometry, ALDH3A1 knockdown group” value (OE21 cells) was “decreased significantly”.

Source: patent US20200207989A1, “FLUORESCENT PROBE FOR ALDH3A1 DETECTION” (The University of Tokyo, priority 2016, published 2020)
